# Measurements taken from PubChem BioAssay AID540276 (National Center for Advancing Translational Sciences (NCATS), 2011).
# The whole screen tested about 300,000 compounds, of which about 5,400 (1.8%) were called active. The shares of active, inactive and inconclusive entries below differ from those in the screen. Calls come from the whole dose curve; tested in HEK293 cells. A potency beside an inconclusive call is a rough fit, not a confirmed value.
# Experiment: qHTS for inhibitors of binding or entry into cells for Marburg Virus
# Settings: Marburg virus pseudotyped entry inhibition, cell reporter; activity change, negative = inhibition: at 37.8 µM (top of the series) unless noted
# % is set by controls: 0 for no effect and ±100 for the full control effect; potency is the fitted concentration of half-maximal effect.
Compound,Potency,"activity change, negative = inhibition"
CC(Oc1ccc(C(=O)c2ccccc2)cc1)C(=O)N1CCOCC1 (configuration not stated),"inconclusive: 12.6 µM [activator, single point]",–
CN(Cc1ccccc1)S(=O)(=O)c1ccc2[nH]cc(C(=O)NCC3CCCO3)c(=O)c2c1 (configuration not stated),–,inactive: 0.757%
O=[N+]([O-])c1ncccc1Oc1nc(-c2cccnc2)nc2ccccc12,"inconclusive: 20 µM [inhibitor, partial curve, poor fit]",–
C=C1CC(Cn2cc(Br)c(=O)[nH]c2=O)(c2ccc(-c3ccccc3)cc2)OC1=O (configuration not stated),"inconclusive: 3.16 µM [inhibitor, partial curve, poor fit]",–
Cc1ccc(N=Cc2sccc2C)cc1C,"inconclusive: 5.8 µM [activator, full curve]",–
Cc1nn(C)c(-c2n[nH]c(=S)n2-c2ccccc2)c1Cl,"inconclusive: 35.5 µM [activator, single point]",–
C/C=C/C=C/C(=O)N1CC2(CC(c3cccc(NC(=O)/C=C/C)c3)=NO2)C[C@@H]1C(N)=O (some centres not stated),–,inactive: 3.66%
CN1CCN(C(c2cccc(C(F)(F)F)c2)c2nnnn2Cc2ccccc2)CC1 (configuration not stated),active: 14.6 µM,–
O=C1CSC(c2ccccn2)N1c1ccccc1F (configuration not stated),"inconclusive: 0.112 µM [inhibitor, full curve, poor fit]",–
Cc1ccccc1NC(=O)/C(C#N)=C/c1ccccc1C(F)(F)F,"inconclusive: 1.26 µM [activator, single point]",–
COc1cccc(C(C(=O)NC2CCCCC2)N(C(=O)CNC(=O)c2ccco2)c2cccnc2)c1 (configuration not stated),"inconclusive: 7.94 µM [inhibitor, partial curve, poor fit]",–
CCn1c(SCC(=O)N(C)Cc2ccc(OC)c(F)c2)nc2cc(S(N)(=O)=O)ccc21,–,inactive: -6.45% [at 46.1 µM]
CCCNC(=S)Nc1ccc(CC(=O)OC)cc1,–,inactive: -2.34%
COCCNC(=O)c1ccc2snnc2c1,"inconclusive: 15.8 µM [activator, single point]",–
Cc1ccc(C(=O)n2c3ccccc3c3ccccc32)cc1,"inconclusive: 10 µM [inhibitor, partial curve, poor fit]",–
O=C(c1cc(-c2ccc(Cl)c(Cl)c2)on1)N1CCCCCC1,"inconclusive: 4.47 µM [activator, full curve, poor fit]",–
Cc1ccc(/C(N)=N/OC(=O)C(C)c2ccc([N+](=O)[O-])cc2)cc1 (configuration not stated),"inconclusive: 6.31 µM [inhibitor, partial curve]",–
Cc1ccc(C(=O)c2sc3nc4c(cc3c2N)CCC4)cc1,–,inactive: 22.7%
Cc1cccc(CNCc2ccccc2)c1,–,inactive: 2.35%
COC(=O)Nc1ccc2c(c1)N(C(=O)CCCl)c1ccccc1S2,"inconclusive: 15.8 µM [inhibitor, single point]",–
COc1ccc(-c2nc3n(c2C)CCC3)cc1,"inconclusive: 5.62 µM [activator, single point]",–
Cc1cccc(/C=N/NC(=O)c2ccc(NC(=O)c3ccccc3Cl)cc2)n1,"inconclusive: 20 µM [activator, single point]",–
Cc1ccc(C(=O)C[n+]2cccc3cc(C)ccc32)cc1,"inconclusive: 7.08 µM [inhibitor, full curve, poor fit]",–

Compound,Potency,"activity change, negative = inhibition"
CC(C)NC(=O)CSc1nnc(-c2ccncc2)n1-c1ccccc1,"inconclusive: 35.5 µM [inhibitor, partial curve, poor fit]",–
O=C(Nc1ccc(Cl)cc1)Nc1ccccc1CC[N+](=O)[O-],–,inactive: -22.6% [at 46.1 µM]
CCC1=Nc2cc(C(=O)NC3CCCC3)ccc2Sc2ccc(Cl)cc21,"inconclusive: 22.4 µM [inhibitor, partial curve, poor fit]",–
COc1ccc(C(=S)N2CCN(c3ccccc3C)CC2)cc1OC,"inconclusive: 14.1 µM [inhibitor, single point]",–
Cc1cc(C)c2c(NC(=O)c3ccccc3Cl)c(C(=O)Nc3ccc(C)c(C)c3)sc2n1,"inconclusive: 17.8 µM [activator, single point]",–
CCc1nc2c(sc3nc4c(cc32)COC(C)(C)C4)c(=O)n1Cc1ccccc1,"inconclusive: 14.6 µM [inhibitor, partial curve]",–
CCc1ccccc1NC(=O)c1nnn(CC(=O)Nc2c(C)cc(C)cc2C)c1N,–,inactive: -6.76% [at 46.1 µM]
CN(C(=O)CSc1nc2ccc(NC(=O)c3ccco3)cc2s1)c1ccccc1,"inconclusive: 6.31 µM [activator, single point]",–
CCn1c(=O)cc(OCC(=O)NCCCN2CCN(c3cccc(Cl)c3)CC2)c2ccccc21,"inconclusive: 16.4 µM [inhibitor, single point]",–
O=C(C[n+]1cccc(CNC(=O)c2ccc(OC(F)F)cc2)c1)c1ccccc1,–,inactive: 19.8% [at 46.1 µM]
COc1ccc(C2C(C(=O)NCc3ccccn3)CCC(=O)N2c2cc(OC)c(OC)c(OC)c2)cc1 (configuration not stated),"inconclusive: 4.47 µM [activator, single point]",–
O=S(=O)(NCC1CCCO1)c1ccc(-c2ccc(Cl)cc2)cc1 (configuration not stated),"inconclusive: 2.82 µM [inhibitor, single point]",–
O=C(Nc1cccc(S(=O)(=O)N2CCCCCC2)c1)C1CCN(C(=O)c2ccc(Cl)cc2)CC1,"inconclusive: 11.2 µM [inhibitor, partial curve, poor fit]",–
CC1CCCN(S(=O)(=O)c2ccc(S(=O)(=O)N3CCCN(Cc4ccccc4)C3)cc2)C1 (configuration not stated),"inconclusive: 29.1 µM [inhibitor, single point]",–
CS(=O)(=O)N1CC2CCCN2c2cc(C(F)(F)F)ccc21 (configuration not stated),"inconclusive: 35.5 µM [inhibitor, partial curve, poor fit]",–
CCN(CC)CC(=O)Nc1ccc(-c2ccc(NC(=O)CN(CC)CC)c(OC)c2)cc1OC,"inconclusive: 6.31 µM [inhibitor, full curve, poor fit]",–
Cc1cc(NC(=O)Nc2ccc(C)c(C)c2)no1,"inconclusive: 35.5 µM [activator, single point]",–
Cc1cnn(-c2nc(-c3ccccc3)cc(-c3ccccc3)n2)c1,"inconclusive: 17.8 µM [inhibitor, single point]",–
COc1ccccc1N1CCN(Cc2ccco2)CC1,"inconclusive: 14.6 µM [activator, partial curve, poor fit]",–
CCCCN(CC)Cc1ccc(CNC(=O)Nc2ccc(Cl)cc2)o1,"inconclusive: 17.8 µM [inhibitor, single point]",–
O=C1CCCc2ccccc2N1Cc1ccccc1Cl,"inconclusive: 31.6 µM [inhibitor, single point]",–
CCOC(=O)Cc1csc(NC(=O)Nc2ccc(C)cc2)n1,–,inactive: -17.5% [at 46.1 µM]
O=C(NCc1ccco1)c1ccccc1-c1ccc(C(F)(F)F)cc1,"inconclusive: 2.24 µM [inhibitor, full curve]",–

# A run of entries from the list above, for reference:
Compound,Potency,"activity change, negative = inhibition"
COc1ccc(C(=S)N2CCN(c3ccccc3C)CC2)cc1OC,"inconclusive: 14.1 µM [inhibitor, single point]",–
Cc1cc(C)c2c(NC(=O)c3ccccc3Cl)c(C(=O)Nc3ccc(C)c(C)c3)sc2n1,"inconclusive: 17.8 µM [activator, single point]",–
CCc1nc2c(sc3nc4c(cc32)COC(C)(C)C4)c(=O)n1Cc1ccccc1,"inconclusive: 14.6 µM [inhibitor, partial curve]",–
CCc1ccccc1NC(=O)c1nnn(CC(=O)Nc2c(C)cc(C)cc2C)c1N,–,inactive: -6.76% [at 46.1 µM]

# Continued.

Compound,Potency,"activity change, negative = inhibition"
Cc1cccc(CC2S/C(=N/N=C/c3ccco3)N(c3ccccc3)C2=O)c1 (configuration not stated),"inconclusive: 0.501 µM [activator, full curve, poor fit]",–
CC1CCC2C(C1)Nc1c(C(=O)O)cccc1C2(C)C (configuration not stated),–,inactive: -16.8% [at 46.1 µM]
O=C(CCNS(=O)(=O)c1ccccc1C(F)(F)F)N1CCN(C(c2ccccc2)c2ccccc2)CC1,active: 7.08 µM,–
Cc1c(-c2ccccc2)[n+](=O)c2c(n1[O-])CCCCC2,"inconclusive: 20 µM [activator, partial curve, poor fit]",–
Cc1ccccc1C(=O)Nc1nnc(SCC(=O)NC2CC2)s1,"inconclusive: 35.5 µM [inhibitor, single point]",–
CC(C)Sc1nnc(Nc2ccccc2)s1,"inconclusive: 0.501 µM [activator, full curve, poor fit]",–
COc1ccc(CCNC(=O)CN(C)S(=O)(=O)c2ccc(OC)cc2)cc1,"inconclusive: 3.55 µM [activator, single point]",–
COc1cc(/C=N/O)cc(Br)c1OCc1ccc(Cl)cc1,"inconclusive: 22.4 µM [inhibitor, partial curve, poor fit]",–
CN(C)c1oc(-c2ccc(OCc3ccc(Cl)cc3)cc2)nc1C#N,"inconclusive: 0.231 µM [inhibitor, single point]",–
O=C(Nc1c(C(=O)N2CCCCC2)cnn1-c1ccccc1)c1ccccc1F,–,inactive: 6.07% [at 46.1 µM]
O=C1CC(c2ccccc2)CC(=O)C1CS(=O)(=O)c1ccccc1 (configuration not stated),–,inactive: 6.59% [at 46.1 µM]
Cc1ccc(NC2=NC3(CCCC3)N=C(N)N2)c(C)c1,"inconclusive: 1.26 µM [inhibitor, partial curve, poor fit]",–
O=S(=O)(c1ccc(Br)cc1)c1cnc2ccccc2n1,"inconclusive: 17.8 µM [inhibitor, partial curve, poor fit]",–
CCOc1ccc(S(=O)(=O)N(CC)CC(=O)NCc2cccnc2)cc1,–,inactive: 15.6% [at 46.1 µM]
Cc1ccc2cc(CCNC(=O)c3ccc(S(=O)(=O)N4CCOCC4)cc3)c(=O)[nH]c2c1C,–,inactive: -11.9%
Cc1cc(C)c(S(=O)(=O)N2CCN(CCN3C(=O)c4cccc5cccc(c45)C3=O)CC2)cc1[N+](=O)[O-],–,inactive: 13%
COc1ccc2nc(C)cc(Sc3nc4ccccc4s3)c2c1,"inconclusive: 35.5 µM [inhibitor, single point]",–
CC(NS(=O)(=O)c1ccccc1)C(=O)NCc1ccco1 (configuration not stated),–,inactive: 16.3%
COC(=O)c1ccc([C@H]2/C(=C(\O)c3ccc(OC)cc3)C(=O)C(=O)N2Cc2ccco2)cc1,–,inactive: -4.36%
O=C(NCc1ccco1)c1cc([N+](=O)[O-])ccc1N1CCCCC1,"inconclusive: 9.2 µM [inhibitor, partial curve, poor fit]",–
COC(=O)CNC(c1ccccc1)c1cc(Br)ccc1N (configuration not stated),"inconclusive: 5.62 µM [activator, single point]",–
